Measurements published in patent US8110365B2, “Compositions and methods for detecting and treating renal injury and inflammation” (Rhode Island Hospital, priority 2006, dated 2012).
These are yes or no findings as the source states them, for the method shown. Binding seen in cells or lysates may run through a third protein. Some binding calls cover weakened binding; strength is not graded here.

By UniProt entry, the sequences of proteins in these tests, tags left out. Where a name states a change or a piece, a line headed by the entry shows the natural chain unless it says otherwise.
UniProt Q04206: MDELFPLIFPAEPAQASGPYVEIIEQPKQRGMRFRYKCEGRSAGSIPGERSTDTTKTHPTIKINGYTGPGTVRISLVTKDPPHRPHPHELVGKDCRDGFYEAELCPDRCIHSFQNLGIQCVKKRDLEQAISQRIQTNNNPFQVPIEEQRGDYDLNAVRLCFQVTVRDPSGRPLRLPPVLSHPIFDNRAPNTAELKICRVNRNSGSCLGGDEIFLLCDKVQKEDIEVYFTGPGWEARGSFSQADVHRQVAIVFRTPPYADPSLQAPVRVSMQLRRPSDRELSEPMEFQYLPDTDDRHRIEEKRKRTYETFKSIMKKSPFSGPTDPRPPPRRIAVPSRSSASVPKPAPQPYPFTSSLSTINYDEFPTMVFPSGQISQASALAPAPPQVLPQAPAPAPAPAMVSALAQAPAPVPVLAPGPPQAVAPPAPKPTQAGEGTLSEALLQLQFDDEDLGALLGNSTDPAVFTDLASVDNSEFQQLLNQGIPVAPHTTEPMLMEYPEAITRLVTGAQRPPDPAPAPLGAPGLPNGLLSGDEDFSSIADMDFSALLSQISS
UniProt P49841: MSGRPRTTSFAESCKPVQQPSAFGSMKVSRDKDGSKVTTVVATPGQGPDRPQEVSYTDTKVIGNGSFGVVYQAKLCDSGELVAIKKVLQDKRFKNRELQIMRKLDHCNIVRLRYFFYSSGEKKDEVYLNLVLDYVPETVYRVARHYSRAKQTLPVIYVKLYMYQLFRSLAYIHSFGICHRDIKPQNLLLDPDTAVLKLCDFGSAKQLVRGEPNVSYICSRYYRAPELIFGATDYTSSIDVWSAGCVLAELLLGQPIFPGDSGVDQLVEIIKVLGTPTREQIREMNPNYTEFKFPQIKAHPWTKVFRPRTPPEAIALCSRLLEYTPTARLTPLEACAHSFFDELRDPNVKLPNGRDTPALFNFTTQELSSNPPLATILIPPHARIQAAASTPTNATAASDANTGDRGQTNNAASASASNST

Experiments:
[1] = target: NFkB p65 (RelA/p65), endogenous in HKC cells (human (endogenous in human HKC-8 cells)) (UniProt Q04206); test: co-immunoprecipitation from HKC whole cell lysates (anti-GSK3b or anti-p65 IP)
[2] = target: NFkB p65 (RelA/p65), endogenous in HKC cells (human (endogenous in human HKC-8 cells)) (UniProt Q04206); test: co-immunoprecipitation from HKC whole cell lysates (anti-p65 IP, probed for GSK3b)
[3] = target: NFkB p65 (RelA/p65), endogenous in HKC cells (human (endogenous in human HKC-8 cells)) (UniProt Q04206); test: co-immunoprecipitation from transfected HKC cells after TNF-a (anti-p65 IP, probed for HA)

Row | Substance | binding [1] | binding [2] | binding [3]
1 | Glycogen synthase kinase-3β (GSK3b), endogenous in HKC cells (from UniProt P49841 1-420) (enzyme) | binds | binds | 
2 | hemagglutin (HA) conjugated uninhibitable mutant GSK3b (S9A) (from UniProt P49841 1-420) (enzyme) |  |  | binds
3 | hemagglutin (HA) conjugated wild type GSK3b (WT) (from UniProt P49841 1-420) (enzyme) |  |  | binds
